Data published in patent US6890706B2, “Process for removing stain in a photographic material” (Ciba Specialty Chemicals Corporation, priority 1999, dated 2005).

Experiments:
[1] = Stain removal: CIE-L*a*b* of the white of paper developed in model processing solution with optical brightener; conditions: Kodak Edge5
[2] = as above; conditions: Fuji SFAVIII
[3] = as above; conditions: Agfa Typ10
[4] = as above; conditions: Konica QA6; 1.0 g/L active substance in developer
[5] = 0.5 g/L active substance in developer
[6] = 1.5 g/L active substance in developer
[7] = 1.0 g/L active substance in developer

| SMILES | C (Chrominance) [2, 5] | H (Hue) [2, 5] | L* [2, 5] | a* [2, 5] | b* [2, 5] | C (Chrominance) [2, 7] | H (Hue) [2, 7] | L* [2, 7] | a* [2, 7] | b* [2, 7] | C (Chrominance) [3, 5] | H (Hue) [3, 5] | L* [3, 5] | a* [3, 5] | b* [3, 5] | C (Chrominance) [3, 7] | H (Hue) [3, 7] | L* [3, 7] | a* [3, 7] | b* [3, 7] | other results |
| --- | --- | --- | --- | --- | --- | --- | --- | --- | --- | --- | --- | --- | --- | --- | --- | --- | --- | --- | --- | --- | --- |
| O=C([O-])CC(Nc1nc(Nc2ccccc2)nc(Nc2ccc(/C=C/c3ccc(Nc4nc(Nc5ccccc5)nc(NC(CC(=O)[O-])C(=O)[O-])n4)cc3S(=O)(=O)[O-])c(S(=O)(=O)[O-])c2)n1)C(=O)[O-].[Na+].[Na+].[Na+].[Na+].[Na+].[Na+] (stereo not shown) [Compound A] | 0.98 | 76 | 90.04 | 0.3 | 1.0 | 0.60 | 90 | 90.22 | 0.3 | 0.6 | 0.30 | 341 | 90.06 | 0.3 | −0.1 | 0.54 | 292 | 90.21 | 0.2 | −0.5 | C (Chrominance) [1, 5]: 0.71; H (Hue) [1, 5]: 260; L* [1, 5]: 90.73; a* [1, 5]: −0.1; b* [1, 5]: −0.7; C (Chrominance) [1, 6]: 1.12; H (Hue) [1, 6]: 259; L* [1, 6]: 90.65; a* [1, 6]: −0.2; b* [1, 6]: −1.1; C (Chrominance) [2, 6]: 0.39; H (Hue) [2, 6]: 50; L* [2, 6]: 90.24; a* [2, 6]: 0.3; b* [2, 6]: 0.3; C (Chrominance) [3, 6]: 0.82; H (Hue) [3, 6]: 283; L* [3, 6]: 90.03; a* [3, 6]: 0.2; b* [3, 6]: −0.8 |
| O=C([O-])CN(CC(=O)[O-])c1nc(Nc2ccccc2)nc(Nc2ccc(/C=C/c3ccc(Nc4nc(Nc5ccccc5)nc(N(CC(=O)[O-])CC(=O)[O-])n4)cc3S(=O)(=O)[O-])c(S(=O)(=O)[O-])c2)n1.[Na+].[Na+].[Na+].[Na+].[Na+].[Na+] [E] | 1.33 | 78 | 90.17 | 0.3 | 1.3 | 0.87 | 67 | 90.28 | 0.4 | 0.8 | 0.21 | 332 | 90.16 | 0.2 | −0.1 | 0.54 | 292 | 90.24 | 0.2 | −0.5 | C (Chrominance) [1, 7]: 1.90; H (Hue) [1, 7]: 90; L* [1, 7]: 90.03; a* [1, 7]: 0.0; b* [1, 7]: 1.9 |
| O=C(O)CN(CC(=O)O)c1nc(Nc2ccc(/C=C/c3ccc(Nc4nc(Nc5cc(S(=O)(=O)O)ccc5S(=O)(=O)O)nc(N(CC(=O)O)CC(=O)O)n4)cc3S(=O)(=O)O)c(S(=O)(=O)O)c2)nc(Nc2cc(S(=O)(=O)O)ccc2S(=O)(=O)O)n1.[Na+].[Na+].[Na+].[Na+].[Na+].[Na+].[Na+].[Na+].[Na+].[Na+] [G] | 0.76 | 67 | 90.17 | 0.4 | 0.7 | 0.45 | 26 | 90.19 | 0.4 | 0.2 | 0.21 | 332 | 90.24 | 0.2 | −0.1 | 1.04 | 286 | 90.29 | 0.3 | −1.0 | C (Chrominance) [1, 5]: 0.72; H (Hue) [1, 5]: 256; L* [1, 5]: 90.65; a* [1, 5]: −0.3; b* [1, 5]: −0.7; C (Chrominance) [1, 7]: 1.02; H (Hue) [1, 7]: 259; L* [1, 7]: 90.78; a* [1, 7]: −0.2; b* [1, 7]: −1.0; C (Chrominance) [4]: 1.41; H (Hue) [4]: 83; L* [4]: 90.85; a* [4]: 0.2; b* [4]: 1.4 |
